According to the supplement of paper PMC4604168 (melanoma cell lines):
The list shows a part of the results. Many values rest on one well or one pass, so single values are uncertain.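 Cells were imaged in 1,536-well plates, and nuclei stained with an antibody against cleaved PARP were counted against all DNA-stained nuclei to give the apoptosis fraction. Screening doses were chosen to leave most cells alive, and resting and induced cleaved-PARP levels differ strongly between cell lines.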

What was measured:
Test in all cases: cleaved PARP positive nuclei fraction relative to DMSO control; melanoma cells; higher = more apoptosis
Conditions in all cases: library dose: low library concentration; 72 h
501Mel = system: 501Mel
A101D = system: A101D
A2058 = system: A2058
A375 = system: A375
C32 = system: C32
CBRC008 = system: CBRC008 (line from a melanoma biopsy)
CBRC013 = system: CBRC013 (line from a melanoma biopsy)
CBRC014 = system: CBRC014 (line from a melanoma biopsy)
CBRC016 = system: CBRC016 (line from a melanoma biopsy)
CBRC017 = system: CBRC017 (line from a melanoma biopsy)
COLO792 = system: COLO792
COLO800 = system: COLO800
COLO829 = system: COLO829
G361 = system: G361
IPC-298 = system: IPC-298
IST-MEL1 = system: IST-MEL1
LB2518-MEL = system: LB2518-MEL
LOXIMVI = system: LOXIMVI
MEL-HO = system: MEL-HO

SMILES | cleaved PARP positive nuclei fraction (501Mel) [%] | cleaved PARP positive nuclei fraction (A101D) [%] | cleaved PARP positive nuclei fraction (A2058) [%] | cleaved PARP positive nuclei fraction (A375) [%] | cleaved PARP positive nuclei fraction (C32) [%] | cleaved PARP positive nuclei fraction (CBRC008) [%] | cleaved PARP positive nuclei fraction (CBRC013) [%] | cleaved PARP positive nuclei fraction (CBRC014) [%] | cleaved PARP positive nuclei fraction (CBRC016) [%] | cleaved PARP positive nuclei fraction (CBRC017) [%] | cleaved PARP positive nuclei fraction (COLO792) [%] | cleaved PARP positive nuclei fraction (COLO800) [%] | cleaved PARP positive nuclei fraction (COLO829) [%] | cleaved PARP positive nuclei fraction (G361) [%] | cleaved PARP positive nuclei fraction (IPC-298) [%] | cleaved PARP positive nuclei fraction (IST-MEL1) [%] | cleaved PARP positive nuclei fraction (LB2518-MEL) [%] | cleaved PARP positive nuclei fraction (LOXIMVI) [%] | cleaved PARP positive nuclei fraction (MEL-HO) [%]
CNC(=O)c1cc(Oc2ccc(NC(=O)Nc3ccc(Cl)c(C(F)(F)F)c3)cc2)ccn1 [sorafenib] + O=C(Nc1cccc(Cl)c1)Nc1ncc(CCNc2ncnc3ccsc23)s1 [SNS314] (first compound 0.4 µM, partner dose 0.0008 µM) | 73.9 | 89 | 135 | 125 | 238 | 199 | 66.2 | 81 | 88 | 94.1 | 71.8 | 78.7 | 53.8 | 55.4 | 23.8 | 110 | 93.9 | 101 | 87.9
CN1CCN(c2ccc3nc(-c4c(N)c5c(F)cccc5[nH]c4=O)[nH]c3c2)CC1 [Dovitinib] + O=C(CCCCCCC(=O)Nc1ccccc1)NO [vorinostat] (first compound 0.1 µM, partner dose 0.08 µM) | 94.9 | 42.2 | 168 | 22.1 | 102 | 87.9 | 158 | 76.7 | 147 | 112 | 79.4 | 82.8 | 218 | 165 | 87 | 123 | 97.1 | 43.9 | 69.2
Nc1nc(F)nc2c1ncn2[C@@H]1O[C@H](CO)[C@@H](O)[C@@H]1O [fludarabine] + COc1cc2c(Oc3ccc4[nH]c(C)cc4c3F)ncnc2cc1OCCCN1CCCC1 [cediranib] (first compound 0.2 µM, partner dose 0.4 µM) | 4080 | 43.3 | 50.9 | 2690 | 31.2 | 164 | 182 | 109 | 145 | 131 | 110 | 30.1 | 105 | 113 | 94.7 | 68.8 | 28.8 | 32 | 44.9
Nc1ccn([C@@H]2O[C@H](CO)[C@@H](O)C2(F)F)c(=O)n1 [gemcitabine] + OCCn1cc(-c2cnc3nnn(Cc4ccc5ncccc5c4)c3n2)cn1 [PF04217903] (first compound 0.0004 µM, partner dose 1 µM) | 149 | 108 | 107 | 112 | 217 | 123 | 74.3 | 235 | 149 | 104 | 212 | 178 | 102 | 174 | 118 | 346 | 125 | 37.5 | 355
Nc1nc(F)nc2c1ncn2[C@@H]1O[C@H](CO)[C@@H](O)[C@@H]1O [fludarabine] + Cc1cc(N2CCOCC2)cc2[nH]c(-c3c(NC[C@@H](O)c4cccc(Cl)c4)cc[nH]c3=O)nc12 [BMS536924] (first compound 0.2 µM, partner dose 0.2 µM) | 2310 | 52.2 | 131 | 17900 | 79.2 | 257 | 460 | 111 | 29.8 | 87.3 | 129 | 146 | 63.8 | 93.7 | 190 | 52.4 | 103 | 72.9 | 136
CC(C)C[C@H](NC(=O)[C@H](Cc1ccccc1)NC(=O)c1cnccn1)B(O)O [Bortezomib] + Cc1cc(N2CCOCC2)cc2[nH]c(-c3c(NC[C@@H](O)c4cccc(Cl)c4)cc[nH]c3=O)nc12 [BMS536924] (first compound 0.001 µM, partner dose 0.2 µM) | 1070 | 292 | 153 | 184 | 104 | 943 | 73.3 | 275 | 653 | 539 | 72.3 | 132 | 79 | 1350 | 63.1 | 105 | 596 | 103 | 139
Cn1c(=O)n(-c2ccc(C(C)(C)C#N)cc2)c2c3cc(-c4cnc5ccccc5c4)ccc3ncc21 + C=CCn1c(=O)c2cnc(Nc3ccc(N4CCN(C)CC4)cc3)nc2n1-c1cccc(C(C)(C)O)n1 [MK1775] (first compound 0.004 µM, partner dose 0.02 µM) | 159 | 263 | 52.4 | 339 | 44.9 | 121 | 149 | 91.8 | 164 | 98.8 | 163 | 70.6 | 139 | 132 | 102 | 226 | 180 | 68.6 | 71.5
CNC(=O)c1cc(Oc2ccc(NC(=O)Nc3ccc(Cl)c(C(F)(F)F)c3)cc2)ccn1 [sorafenib] + NC(=O)Nc1cc(-c2cccc(F)c2)sc1C(=O)N[C@H]1CCCNC1 [AZD7762] (first compound 0.4 µM, partner dose 0.02 µM) | 84.9 | 148 | 88.6 | 102 | 51.9 | 118 | 126 | 89.2 | 74.6 | 195 | 81.6 | 111 | 224 | 56.7 | 64.5 | 89.8 | 72.1 | 121 | 255
Nc1ncn([C@H]2C[C@H](O)[C@@H](CO)O2)c(=O)n1 [decitabine] + Cc1ccc(NC(=O)c2cccc(N(C)C)c2)cc1NC(=O)c1ccc(O)cc1 [ZM336372] (first compound 0.1 µM, partner dose 2 µM) | 105 | 45.8 | 111 | 119 | 73.9 | 130 | 80.8 | 105 | 177 | 126 | 191 | 109 | 110 | 51.9 | 75.6 | 101 | 304 | 80.5 | 361
Nc1ncn([C@H]2C[C@H](O)[C@@H](CO)O2)c(=O)n1 [decitabine] + CO[C@@H]1[C@H](N(C)C(=O)c2ccccc2)C[C@H]2O[C@]1(C)n1c3ccccc3c3c4c(c5c6ccccc6n2c5c31)C(=O)NC4 [Midostaurin] (first compound 0.1 µM, partner dose 0.08 µM) | 79 | 218 | 51.7 | 56.9 | 60 | 122 | 101 | 139 | 206 | 109 | 159 | 146 | 190 | 130 | 196 | 86.9 | 64.8 | 87.2 | 93.9
Nc1nc(F)nc2c1ncn2[C@@H]1O[C@H](CO)[C@@H](O)[C@@H]1O [fludarabine] + CC(C)(C)c1cnc(CSc2cnc(NC(=O)C3CCNCC3)s2)o1 [SNS-032] (first compound 0.2 µM, partner dose 0.01 µM) | 1910 | 78.8 | 54.9 | 4860 | 103 | 154 | 521 | 93.5 | 113 | 86.2 | 150 | 59 | 132 | 52.4 | 48.3 | 221 | 186 | 176 | 152
Nc1ccn([C@@H]2O[C@H](CO)[C@@H](O)C2(F)F)c(=O)n1 [gemcitabine] + NCC(=O)Nc1ccc(-n2nc(C(F)(F)F)cc2-c2ccc3c(ccc4ccccc43)c2)cc1 [OSU03012] (first compound 0.0004 µM, partner dose 1 µM) | 141 | 92.1 | 199 | 4040 | 70.7 | 135 | 113 | 114 | 221 | 100 | 133 | 170 | 136 | 116 | 247 | 88 | 34.6 | 89.4 | 215
O=C(O)[C@@H]1[O][Sb](=[O])([O][Sb]2(=[O])[O][C@H]([C@H](O)CO)[C@H](O)[C@H](C(=O)O)[O]2)[O][C@H]([C@H](O)CO)[C@@H]1O (stereo not given in full) [stibogluconate] + O=C(O)c1ccc(-c2c[nH]c3ncc(-c4ccccc4)cc23)cc1C1CCCC1 [GSK650394] (first compound 2 µM, partner dose 0.16 µM) | 76 | 152 | 91.1 | 79.1 | 154 | 694 | 71 | 112 | 138 | 102 | 117 | 73.3 | 73.4 | 94.9 | 87.6 | 95.1 | 43.8 | 65.3 | 71
Nc1nc(F)nc2c1ncn2[C@@H]1O[C@H](CO)[C@@H](O)[C@@H]1O [fludarabine] + CN(C)S(=O)(=O)c1ccc2c(c1)/C(=C/c1cc3c([nH]1)CCCC3)C(=O)N2 [SU6656] (first compound 0.2 µM, partner dose 0.4 µM) | 1570 | 69 | 243 | 7000 | 149 | 66.6 | 522 | 105 | 70.4 | 105 | 35.9 | 90.1 | 129 | 97.8 | 101 | 122 | 110 | 101 | 65.6
CO[C@H]1C[C@@H]2CC[C@@H](C)[C@@](O)(O2)C(=O)C(=O)N2CCCC[C@H]2C(=O)O[C@H]([C@H](C)C[C@@H]2CC[C@@H](OCCO)[C@H](OC)C2)CC(=O)[C@H](C)/C=C(\C)[C@@H](O)[C@@H](OC)C(=O)[C@H](C)C[C@H](C)/C=C/C=C/C=C/1C [everolimus] + CO[C@@H]1[C@H](N(C)C(=O)c2ccccc2)C[C@H]2O[C@]1(C)n1c3ccccc3c3c4c(c5c6ccccc6n2c5c31)C(=O)NC4 [Midostaurin] (first compound 0.02 µM, partner dose 0.08 µM) | 97.4 | 96.7 | 189 | 1050 | 110 | 242 | 70.9 | 91.4 | 69 | 110 | 193 | 100 | 120 | 280 | 171 | 112 | 66.1 | 136 | 92.5

Rewritten with tabs: entries from further up
SMILES	cleaved PARP positive nuclei fraction (501Mel) [%]	cleaved PARP positive nuclei fraction (A101D) [%]	cleaved PARP positive nuclei fraction (A2058) [%]	cleaved PARP positive nuclei fraction (A375) [%]	cleaved PARP positive nuclei fraction (C32) [%]	cleaved PARP positive nuclei fraction (CBRC008) [%]	cleaved PARP positive nuclei fraction (CBRC013) [%]	cleaved PARP positive nuclei fraction (CBRC014) [%]	cleaved PARP positive nuclei fraction (CBRC016) [%]	cleaved PARP positive nuclei fraction (CBRC017) [%]	cleaved PARP positive nuclei fraction (COLO792) [%]	cleaved PARP positive nuclei fraction (COLO800) [%]	cleaved PARP positive nuclei fraction (COLO829) [%]	cleaved PARP positive nuclei fraction (G361) [%]	cleaved PARP positive nuclei fraction (IPC-298) [%]	cleaved PARP positive nuclei fraction (IST-MEL1) [%]	cleaved PARP positive nuclei fraction (LB2518-MEL) [%]	cleaved PARP positive nuclei fraction (LOXIMVI) [%]	cleaved PARP positive nuclei fraction (MEL-HO) [%]
Nc1ccn([C@@H]2O[C@H](CO)[C@@H](O)C2(F)F)c(=O)n1 [gemcitabine] + OCCn1cc(-c2cnc3nnn(Cc4ccc5ncccc5c4)c3n2)cn1 [PF04217903] (first compound 0.0004 µM, partner dose 1 µM)	149	108	107	112	217	123	74.3	235	149	104	212	178	102	174	118	346	125	37.5	355
Nc1ncn([C@H]2C[C@H](O)[C@@H](CO)O2)c(=O)n1 [decitabine] + CO[C@@H]1[C@H](N(C)C(=O)c2ccccc2)C[C@H]2O[C@]1(C)n1c3ccccc3c3c4c(c5c6ccccc6n2c5c31)C(=O)NC4 [Midostaurin] (first compound 0.1 µM, partner dose 0.08 µM)	79	218	51.7	56.9	60	122	101	139	206	109	159	146	190	130	196	86.9	64.8	87.2	93.9
